# The source gives many values for each of these; only a part stands here.
# System: PBMC of RRMS patients
# Test: Gene expression microarray analysis (HG-U133A-2) of PBMC from RRMS patients treated with LAQ, ancillary study to ALLEGRO
# Type: in vivo, human
# Source text: The goal of this ancillary study was to characterize gene expression changes and corresponding biological mechanisms induced in PBMC of RRMS patients by LAQ treatment. According to ALLEGRO clinical trial inclusion criteria, 25 patients were randomly assigned to receive LAQ (n=13, age 38.8±2.3 years, female/male ratio: 8/5) or placebo (n=12, age 37.2±3.4 years, female/male ratio: 8/4).
# Peripheral blood samples were obtained from RRMS patients at baseline before start of LAQ treatment or placebo, after 0, 1, 6 and 24 month of treatment (visit 0, 1, 6 and 7 according to ALLEGRO clinical trial protocol correspondently) for gene microarray analysis.
# Briefly, 1) Peripheral blood mononuclear cells (PBMC) were obtained from RRMS patients that participated in ALLEGRO and were treated daily with 0.6 mg LAQ or placebo. PBMC were subjected for gene expression analysis (HU-133A-2-Affymatrix arrays) at baseline and at 1 and 6 months of LAQ treatment; 2) Data was analyzed by Partek Genomics Solution software. Most informative genes (MIGs) were defined as those that differentiated between groups with p<0.01. Gene functional annotation, enrichment and pathway analysis were performed by Ingenuity software. For each time point, genes that changed in placebo group were excluded from further analysis; and 3) Verification of LAQ related mechanism was performed by Western blot.
# PBMC were extracted from 15 ml peripheral blood, separated by Ficoll-Hypaque gradient. Total RNA was extracted using both Trizol (Invitrogen, USA) and Phase-Lock-Gel columns (Eppendorf, Germany) including a DNase digestion step. RNA integrity was assessed by RNA Experion automated electrophoresis system (Bio-Rad Laboratories, Hercules, Calif.).
# Probe synthesis using 3 μg total RNA, hybridization, detection, and scanning was performed according to the standard Affymetrix, Inc. USA protocols; cDNA was synthesized using the Two-Cycle cDNA Synthesis Kit (Affymetrix, Inc., USA), and in-vitro transcription performed with the GeneChip IVT Labeling Kit (Affymetrix, Inc., USA). The biotin-labeled IVT-RNA was hybridized to HG-U133A-2 arrays containing 18,400 gene transcripts, each corresponding to 14,500 well-annotated human genes, washed in a GeneChip Fluidics Station 450 (Hewlett Packard, USA, GeneArray-™ scanner G2500A) and scanned according to the manufacturer's protocol (Affymetrix, Inc., USA).
# Data analysis was performed on Partek Genomics Solution software (www.partek.com; Partek Incorporated, St. Louis, Mo.). Expression values were computed from raw CEL files by applying the Robust Multi-Chip Average (RMA) background correction algorithm. RMA correction included: 1) values background correction; 2) quintile normalization; 3) log 2 transformation; and 4) median polish summarization. The ANOVA, Repeated Measures and correlation analysis implicated in Partek software ware applied to evaluate LAQ effects. Most informative genes MIGs were defined as those that differentiated between experimental groups with p<0.01. All p-values were calculated for False Discovery Rate (FDR) multiple test correction at p=0.05.
# Additionally, significance of individual genes was tested by parametric T-test and non parametric Mann-Whitney test using Bootstrapping approach based on repeated permutations of the data with 5% FDR for multiple testing.
# Gene functional annotation, enrichment, and pathway analyses to identify the leading biological pathways that operated under LAQ treatment were performed by Ingenuity Pathways Analysis software (www.ingenuity.com).
# ANOVA analysis was used to compare PBMC gene expression after 1, 6 or 24 month of LAQ treatment with baseline gene expression.
# For each time point inventors performed analysis source of variation in dataset. (FIG. 1). Age, gender and batch effects were considered as confounders regarding LAQ or Placebo related changes. For each time point genes associated with Placebo effect were evaluated and excluded from further analysis. […]
smiles,measurement,setting,value
"CCN(C(=O)c1c(O)c2c(Cl)cccc2n(C)c1=O)c1ccccc1 [LAQ, 5-chloro-N-ethyl-4-hydroxy-1-methyl-2-oxo-N-phenyl-1,2-dihydroquinoline-3-carboxamide]",Fold-Change (4.0 vs. 0.0),"gene TF, PBMC, six months of LAQ treatment",−1.12
same,Fold-Change (4.0 vs. 0.0),"gene TF, after six months of LAQ",−1.142
same,Fold-Change (4.0 vs. 0.0),"gene TFAP2C, after six months of LAQ",−1.132
same,Fold-Change (4.0 vs. 0.0),"gene TFAP4, six months of treatment",−1.147
same,Fold-Change (4.0 vs. 0.0),"gene TFF3, after six months of LAQ",−1.247
same,Fold-Change (4.0 vs. 0.0),"gene TFPI, six months of treatment",−1.161
same,Fold-Change (4.0 vs. 0.0),gene TFR2,−1.188
same,Fold-Change (4.0 vs. 0.0),"gene TGM2, after six months of LAQ",−1.338
same,Fold-Change (4.0 vs. 0.0),"gene THPO, PBMC, six months of LAQ treatment",−1.091
same,Fold-Change (4.0 vs. 0.0),gene THRB,−1.177
same,Fold-Change (4.0 vs. 0.0),"gene THSD7A, after six months of LAQ",−1.1321
same,Fold-Change (4.0 vs. 0.0),"gene TIMELESS, six months of treatment",−1.146
same,Fold-Change (4.0 vs. 0.0),"gene TIMP3, six months of treatment",−1.156
same,Fold-Change (4.0 vs. 0.0),"gene TLL2, after six months of LAQ",−1.123
same,Fold-Change (4.0 vs. 0.0),"gene TLX1, six months of treatment",−1.154
same,Fold-Change (4.0 vs. 0.0),"gene TLX3, six months of treatment",−1.145
same,Fold-Change (4.0 vs. 0.0),"gene TM7SF4, six months of treatment",−1.158
same,Fold-Change (4.0 vs. 0.0),"gene TMEM158, after six months of LAQ",−1.882
same,Fold-Change (4.0 vs. 0.0),"gene TMEM212, after six months of LAQ",−1.143
same,Fold-Change (4.0 vs. 0.0),"gene TMEM222, after six months of LAQ",−1.131
same,Fold-Change (4.0 vs. 0.0),"gene TMPRSS11D, six months of treatment",−1.159
same,Fold-Change (4.0 vs. 0.0),"gene TMSB15A, six months of treatment",−1.154
same,Fold-Change (4.0 vs. 0.0),"gene TNC, six months of treatment",−1.148
same,Fold-Change (4.0 vs. 0.0),"gene TNFRSF11B, PBMC, six months of LAQ treatment",−1.116
same,Fold-Change (4.0 vs. 0.0),"gene TNIP3, six months of treatment",−1.159
same,Fold-Change (4.0 vs. 0.0),"gene TNN, six months of treatment",−1.16
same,Fold-Change (4.0 vs. 0.0),"gene TNPO2, six months of treatment",−1.159
same,Fold-Change (4.0 vs. 0.0),"gene TOX3, after six months of LAQ",−1.141
same,Fold-Change (4.0 vs. 0.0),gene TP63,−1.185
same,Fold-Change (4.0 vs. 0.0),"gene TP63, after six months of LAQ",−1.261
same,Fold-Change (4.0 vs. 0.0),"gene TPD52L1, six months of treatment",−1.158
same,Fold-Change (4.0 vs. 0.0),"gene TPM2, after six months of LAQ",−1.13
same,Fold-Change (4.0 vs. 0.0),"gene TREH, PBMC, six months of LAQ treatment",−1.122
same,Fold-Change (4.0 vs. 0.0),"gene TRIM3, after six months of LAQ",−1.126
same,Fold-Change (4.0 vs. 0.0),"gene TRIM9, six months of treatment",−1.153
same,Fold-Change (4.0 vs. 0.0),"gene TRIM10, six months of treatment",−1.147
same,Fold-Change (4.0 vs. 0.0),gene TRIM15,−1.186
same,Fold-Change (4.0 vs. 0.0),gene TRIM17,−1.187
same,Fold-Change (4.0 vs. 0.0),"gene TRIM49, after six months of LAQ",−1.128
same,Fold-Change (4.0 vs. 0.0),"gene TRIM58, after six months of LAQ",−1.736
same,Fold-Change (4.0 vs. 0.0),"gene TRMT61A, after six months of LAQ",−1.1428
same,Fold-Change (4.0 vs. 0.0),"gene TRPC4, after six months of LAQ",−1.127
same,Fold-Change (4.0 vs. 0.0),"gene TRPC7, after six months of LAQ",−1.234
same,Fold-Change (4.0 vs. 0.0),"gene TRPV4, PBMC, six months of LAQ treatment",−1.121
same,Fold-Change (4.0 vs. 0.0),"gene TSHB, six months of treatment",−1.147
same,Fold-Change (4.0 vs. 0.0),"gene TSPAN1, after six months of LAQ",−1.235
same,Fold-Change (4.0 vs. 0.0),"gene TSPY1, six months of treatment",−1.146
same,Fold-Change (4.0 vs. 0.0),gene TUBB2B,−1.188
same,Fold-Change (4.0 vs. 0.0),"gene UBE2D4, PBMC, six months of LAQ treatment",−1.104
same,Fold-Change (4.0 vs. 0.0),"gene UBE2I, after six months of LAQ",−1.265
same,Fold-Change (4.0 vs. 0.0),gene UBQLN3,−1.1902
same,Fold-Change (4.0 vs. 0.0),"gene UGT1A1 /// UGT1A10 /// UGT1A3 /// UGT1A4 /// UGT1A5 /// UGT1A6 /// UGT1A7 /// UGT1A8 /// UGT1A9, six months of treatment",−1.154
same,Fold-Change (4.0 vs. 0.0),"gene UGT1A1 /// UGT1A10 /// UGT1A4 /// UGT1A6 /// UGT1A8 /// UGT1A9, after six months of LAQ",−1.227
same,Fold-Change (4.0 vs. 0.0),"gene UGT1A1 /// UGT1A10 /// UGT1A7 /// UGT1A8, six months of treatment",−1.1547
same,Fold-Change (4.0 vs. 0.0),gene UGT2A1 /// UGT2A2,−1.191
same,Fold-Change (4.0 vs. 0.0),gene UGT2B15,−1.177
same,Fold-Change (4.0 vs. 0.0),"gene UGT2B15, after six months of LAQ",−1.139
same,Fold-Change (4.0 vs. 0.0),"gene UNC5B, six months of treatment",−1.151
same,Fold-Change (4.0 vs. 0.0),"gene UNC93A, after six months of LAQ",−1.123
same,Fold-Change (4.0 vs. 0.0),gene UPK1B,−1.192
same,Fold-Change (4.0 vs. 0.0),"gene USH1C, six months of treatment",−1.159
same,Fold-Change (4.0 vs. 0.0),gene USP46,−1.187
same,Fold-Change (4.0 vs. 0.0),"gene VAC14, after six months of LAQ",−1.297
same,Fold-Change (4.0 vs. 0.0),"gene VGLL1, after six months of LAQ",−1.143
same,Fold-Change (4.0 vs. 0.0),gene WFDC8,−1.188
same,Fold-Change (4.0 vs. 0.0),"gene WNT11, six months of treatment",−1.157
same,Fold-Change (4.0 vs. 0.0),gene WSCD1,−1.176
same,Fold-Change (4.0 vs. 0.0),"gene XAGE1A /// XAGE1B /// XAGE1C /// XAGE1D /// XAGE1E, six months of treatment",−1.1482
same,Fold-Change (4.0 vs. 0.0),"gene XYLT1, PBMC, six months of LAQ treatment",1.332
same,Fold-Change (4.0 vs. 0.0),"gene YOD1, PBMC, six months of LAQ treatment",−1.117
same,Fold-Change (4.0 vs. 0.0),"gene ZBED2, after six months of LAQ",−1.256
same,Fold-Change (4.0 vs. 0.0),"gene ZER1, six months of treatment",−1.154
same,Fold-Change (4.0 vs. 0.0),"gene ZNF155, after six months of LAQ",−1.227
same,Fold-Change (4.0 vs. 0.0),"gene ZNF214, six months of treatment",−1.1492
same,Fold-Change (4.0 vs. 0.0),"gene ZNF224, six months of treatment",−1.16
same,Fold-Change (4.0 vs. 0.0),"gene ZNF324B /// ZNF584, PBMC, six months of LAQ treatment",−1.114
same,Fold-Change (4.0 vs. 0.0),"gene ZNF467, after six months of LAQ",−1.129
same,Fold-Change (4.0 vs. 0.0),"gene ZNF471, PBMC, six months of LAQ treatment",−1.12
same,Fold-Change (4.0 vs. 0.0),"gene ZNF550, after six months of LAQ",−1.269
same,Fold-Change (4.0 vs. 0.0),"gene ZNF674, PBMC, six months of LAQ treatment",−1.116
same,Fold-Change (4.0 vs. 0.0),gene ZNF821,−1.195
same,Fold-Change (4.0 vs. 0.0),"gene ZNRF4, six months of treatment",−1.149

# Reference: patent US20160201132A1, “GENE EXPRESSION BIOMARKERS OF LAQUINIMOD RESPONSIVENESS” (Teva Pharmaceutical Industries Ltd., priority 2013, published 2016)
